# According to PubChem BioAssay AID504444 (National Center for Advancing Translational Sciences (NCATS), 2011):
# Out of some 360,000 compounds screened, about 7,500 (2.1%) were called active. This list was built around the results that the source calls inconclusive (neither active nor inactive); the mix of calls is not that of the screen. The call rests on the fitted dose curve; in most records, active means well fitted inhibition curve with a large enough effect; inconclusive means small, poorly fitted or top-dose-only effect, or effect the other way; inactive means flat fitted curve, though single readings scatter. Potencies beside an inconclusive call are fits to weak or partial responses and may not hold up.
# Assay: Nrf2 qHTS screen for inhibitors; further: nearly all actives have a fitted effect of over 60% in size
# Settings: A549 ARE-Fluc reporter, luciferase luminescence, 18-24 h; activity change, negative = inhibition: at 46 µM (top of the series)
# How it was run: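 Cells were seeded and rested 2 h, then exposed to compounds for 18-24 h. CellTiter-Fluor was read first as a viability measure. BugLite was added 15 min before the final luminescent read of ARE-luciferase activity in A549 cells.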
# On the % scale 0 is the no-effect control and ±100 the full control effect; potency means the concentration at half of the fitted maximal effect.
Structure (SMILES),Potency,"activity change, negative = inhibition"
O=C1Nc2ccccc2Oc2cc(Oc3cccc(Cl)c3)ccc21,"inconclusive: 20.6 µM [falling, partial curve]",
CC1CCN(S(=O)(=O)c2ccc(NC(=O)C3CCCCC3C(=O)O)cc2)CC1 (stereo unspecified),,inactive: -8.83%
O=C(N[C@@H]1C/C=C\C[C@H](CC(=O)N(CCO)Cc2ccccc2)C(=O)N[C@@H](Cc2ccccc2)COC1=O)OCC1c2ccccc2-c2ccccc21,"inconclusive: 25.9 µM [falling, single point]",
OCc1cc(Br)ccc1OCc1nc2ccccc2s1,"inconclusive: 25.9 µM [activator, single point]",
Cc1cc(C)c(S(=O)(=O)N2CCC(n3c(C(F)(F)F)nc4cccnc43)CC2)c(C)c1,"inconclusive: 9.2 µM [activator, partial curve]",
FC(F)(F)c1cnc(-c2cnc(-c3ccncc3)nc2)c(Cl)c1,"inconclusive: 18.4 µM [activator, single point]",
N#CC1=C(N)NC(SCc2ccc(Br)cc2)=C(C#N)C12CCCCC2,"inconclusive: 25.9 µM [falling, single point]",
Nc1nc(SCc2ccccc2Cl)c2ncn(C3OC(CO)C(O)C3O)c2n1 (stereo unspecified),"inconclusive: 3.66 µM [falling, partial curve, poor fit]",
Cc1ccc(C)c2[nH]c(=O)c(CCNS(=O)(=O)c3ccccc3)cc12,"inconclusive: 0.13 µM [falling, full curve, poor fit]",
Fc1ccc(N2CCN(c3nc4ccccc4c4nc(-c5cccnc5)nn34)CC2)cc1,,inactive: -7.09%
Cc1cccc(Cn2cc(/C=C/[N+](=O)[O-])c3ccccc32)c1,active: 16.4 µM,
CCCCN(C)CCNC(=O)C1CCCN(S(=O)(=O)c2cccc3nsnc23)C1 (stereo unspecified),"inconclusive: 11.6 µM [activator, partial curve, poor fit]",
CCCCNC(=S)N/N=C/c1ccc(C#N)cc1,"inconclusive: 14.6 µM [falling, partial curve, poor fit]",
Cc1c(Cl)cccc1-c1ccc(CNCCCSc2nnnn2C)o1,,inactive: -9.22%
CC(=O)Nc1ccc(NC(=O)COC(=O)c2cc(S(=O)(=O)N(C)C)ccc2N2CCCC2)cc1,"inconclusive: 8.2 µM [activator, partial curve, poor fit]",
COc1ccc(CNc2ncccc2[N+](=O)[O-])cc1,"inconclusive: 23.1 µM [activator, single point]",
CN1CCN(C(=O)CCN2C(=O)/C(=C/c3cccc(Br)c3)SC2=S)CC1,"inconclusive: 20.6 µM [activator, single point]",
COC(=O)c1sc2cccc(F)c2c1S(=O)(=O)N1CCN(c2cccc(OC)c2)CC1,"inconclusive: 0.82 µM [falling, full curve, poor fit]",
Cc1cc(=O)[nH]c(-c2ccccc2)n1,,inactive: -4.38%
COc1ccc(Cl)cc1NC(=O)CSc1nnc(CN2CCOCC2)n1-c1ccc(Cl)cc1,"inconclusive: 29.1 µM [falling, single point]",
Cc1ccc(C(=O)CCC(=O)Nc2cccc(C)c2)cc1,,inactive: 8.77%
COCCCNCCCOc1ccc(C(C)(C)c2ccccc2)cc1,,inactive: 2.07%

# Part of the list above in order of molecular weight, high to low:
Structure (SMILES),Potency,"activity change, negative = inhibition"
COc1ccc(Cl)cc1NC(=O)CSc1nnc(CN2CCOCC2)n1-c1ccc(Cl)cc1,"inconclusive: 29.1 µM [falling, single point]",
CC1CCN(S(=O)(=O)c2ccc(NC(=O)C3CCCCC3C(=O)O)cc2)CC1 (stereo unspecified),,inactive: -8.83%
Cc1c(Cl)cccc1-c1ccc(CNCCCSc2nnnn2C)o1,,inactive: -9.22%
FC(F)(F)c1cnc(-c2cnc(-c3ccncc3)nc2)c(Cl)c1,"inconclusive: 18.4 µM [activator, single point]",
Cc1cc(=O)[nH]c(-c2ccccc2)n1,,inactive: -4.38%

# Additional results follow:

Structure (SMILES),Potency,"activity change, negative = inhibition"
Cc1ccc(-n2ncc(C(=O)NCc3ccc4c(c3)OCO4)c2NC(=O)c2ccco2)cc1C,"inconclusive: 18.4 µM [falling, partial curve]",
Cc1cc(/C=C2/C(=N)N3C(c4ccccc4)=CSC3=NC2=O)c(C)n1-c1ccccc1,"inconclusive: 23.1 µM [activator, single point]",
COc1ccc(CNC(=O)[C@@H](C)NC(=O)C2CCN(C(=O)[C@@H](N)CCSC)CC2)cc1,,inactive: 2.8%
Cc1ccc(-n2c(SCn3nnc4ccccc4c3=O)nnc2-c2cccnc2)c(C)c1,"inconclusive: 29.1 µM [falling, partial curve, poor fit]",
CC(=NNc1ccc2ccccc2n1)c1ccccc1O,"inconclusive: 4.11 µM [falling, full curve]",
CCCn1c(N)c(C(=O)CN(C)CC(=O)Nc2c(Cl)cccc2Cl)c(=O)[nH]c1=O,"inconclusive: 20.6 µM [falling, single point]",
O=C(CCn1cnc2onc(-c3ccc(F)cc3)c2c1=O)Nc1ccc(F)c(Cl)c1,"inconclusive: 14.6 µM [falling, partial curve, poor fit]",
O=C(Nc1ccc2c(c1)CCC2)c1ccc(F)cc1,"inconclusive: 1.64 µM [activator, full curve]",
Cc1ccc(NC(=O)C(=O)NCC2CCCN2S(=O)(=O)c2cccs2)c(C)c1 (stereo unspecified),"inconclusive: 29.1 µM [falling, single point]",
Fc1ccc2[nH]c3c(NCc4ccccc4)ncnc3c2c1,active: 18.4 µM,
CCN(CC1COc2ccccc2O1)C(=S)NCCCN(C)C (stereo unspecified),,inactive: 10.8%
O=C(NC1=NCCS1)c1sc2ccccc2c1Cl,"inconclusive: 0.651 µM [activator, full curve]",
CCN1CCN(C(=O)CCN(CC(C)C)c2nc(-c3cccs3)nc3ccccc23)CC1,,inactive: -18.4%
COc1cc(C(=O)NCCc2ccc(S(=O)(=O)N3CCCC3)cc2)cc(OC)c1OC,"inconclusive: 20.6 µM [falling, single point]",
Cn1c(=O)n(Cc2ccc(Cl)cc2)c2ccccc21,"inconclusive: 0.164 µM [falling, full curve, poor fit]",
CNc1nc(Cl)nc(Nc2ccccc2)n1,"inconclusive: 25.9 µM [falling, single point]",
CCCn1c(=O)c(C(=O)NCc2ccccc2)c(O)c2ccccc21,,inactive: -0.888%
CC(C)(C)OC(=O)N/N=C/c1ccc(Br)cc1,"inconclusive: 7.31 µM [activator, partial curve]",
Cc1cn2c(=O)cc(COc3cccc(NC(=O)c4ccc(C(C)(C)C)cc4)c3)nc2s1,,inactive: -1.8%
O=C(NCc1ccccc1)C1CCN(c2nc(-c3ccccc3)nc3c2CCC3)CC1,"inconclusive: 29.1 µM [falling, single point]",
O=C(Nc1cccc(S(=O)(=O)NC2=NCCC2)c1)c1ccccc1,,inactive: -19.8%
CCOC(=O)C1CCN(CC(=O)Nc2cc(C)c3c(=O)oc4ccccc4c3n2)CC1,,inactive: 24.8%

Structure (SMILES),Potency,"activity change, negative = inhibition"
O=C(Cn1nnc(-c2ccccc2)n1)N1CCCCC1,"inconclusive: 20.6 µM [activator, single point]",
Cc1ccccc1S(=O)Cc1ccc(C(=O)NC2CCN(Cc3ccccc3)CC2)o1 (stereo unspecified),"inconclusive: 5.17 µM [falling, partial curve, poor fit]",
C/C(=N\OCc1ccc(C#N)cc1)c1ccccc1,"inconclusive: 11.6 µM [activator, partial curve, poor fit]",
CN(C)C=NC(=O)c1cc(C(=O)c2ccc(F)cc2)c[nH]1,"inconclusive: 25.9 µM [activator, partial curve, poor fit]",
CCCC(=O)Nc1ccccc1NC(=O)c1ccc(OC)cc1,"inconclusive: 10.3 µM [falling, partial curve, poor fit]",
Cc1ccc(/C=N/N2C(=S)SC(C)(C)C2N(O)C(=O)Nc2ccc([N+](=O)[O-])cc2)cc1 (stereo unspecified),"inconclusive: 29.1 µM [falling, single point]",
CC(=O)N1CCCc2cc(S(=O)(=O)CCC(=O)N3CCN(c4cccc(C)c4)C(C)C3)ccc21 (stereo unspecified),"inconclusive: 36.6 µM [falling, partial curve, poor fit]",
O=C(CCCN1C(=O)/C(=C/c2cccc(Br)c2)SC1=S)Nc1cccnc1,"inconclusive: 29.1 µM [falling, single point]",
COc1ccc(S(=O)(=O)N2CCN(C(=O)c3ccc(C)o3)CC2)cc1,"inconclusive: 16.4 µM [falling, partial curve, poor fit]",
Cc1cccc(C(=O)Oc2ccccc2/C=N/NC(=O)c2ccc(NC(=O)C(C)(C)C)cc2)c1,,inactive: 1.25%
C=CCc1ccccc1OCCSc1nc(-c2cccs2)nc2cc(=O)[nH]n12,,inactive: 22.3%
CN(C(=O)c1cccc(NC(=O)Cc2ccc(NC(=O)C3CCCN(C(=O)CCc4ccccc4)C3)cc2)c1)C1CC1 (stereo unspecified),"inconclusive: 23.1 µM [falling, partial curve, poor fit]",
COCCn1c(=NC(=O)CCS(=O)(=O)c2ccccc2)sc2ccccc21,"inconclusive: 8.2 µM [falling, partial curve, poor fit]",
Cn1nc(CC(=O)Nc2ccc3c(c2)CCC3)c2ccccc2c1=O,"inconclusive: 2.06 µM [falling, full curve]",
CCOC(=O)Cc1cc(=O)[nH]c(/N=C(/NC(=O)c2ccccc2)Nc2ccccc2C(F)(F)F)n1,"inconclusive: 2.91 µM [falling, partial curve, poor fit]",
O=C(NCc1ccncc1)c1ccc(N2CCCC2)c([N+](=O)[O-])c1,"inconclusive: 23.1 µM [falling, single point]",
O=C(OCC(=O)N1CCN(C(=O)c2ccco2)CC1)c1cc(-c2ccco2)nc2ccccc12,,inactive: -19.7%
c1ccc2nc(-c3ccc(N4CCOCC4)cc3)ccc2c1,"inconclusive: 0.326 µM [activator, full curve, poor fit]",
Cc1cccc(N2CCN(C(=O)Cn3c(=O)c4cccn4c4ccc(F)cc43)CC2)c1C,,inactive: 5.24%
CC(=O)Nc1nonc1-c1nc2ccccc2n1CCC(C)C,,inactive: 2.91%
COc1ccc(NS(=O)(=O)c2cc(NC(=O)CNC(=O)c3ccc(C)s3)ccc2Cl)cc1,"inconclusive: 32.6 µM [falling, single point]",
COc1ccc(C2(O)CC3CCC(C2)N3c2cc(C)nc(-c3ccccc3)n2)cc1 (stereo unspecified),"inconclusive: 29.1 µM [falling, single point]",
